Measurements reported in PubChem BioAssay AID1671195 (Yale University, 2021).
Shown is a random part of about 22,000 reagents tested. In the full data, about 1,510 (6.9%) got an active call. 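Active includes knockdowns raising or lowering LDL uptake; positive z-scores mean more uptake, negative mean less.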 Entries without a mark were called inactive.

Aim: 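Genes whose knockdown alters LDL uptake in liver cancer cells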 (primary screen)
Cell system: human Huh7 hepatoma cells
Reagents: siRNA pool against human genes, 18 nM
Timing: about 2 to 2.5 days of knockdown, then 8 h LDL uptake
Conditions: DiI-labelled LDL at 30 µg/ml for 8 h, in lipoprotein-deficient serum medium
Read-out: 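Per-cell DiI-LDL intensity by automated imaging; well means scaled to the plate median and given as a robust z-score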
Scale: robust z-score: higher = more LDL uptake after knockdown
Active means: 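a gene counts as active if at least two replicate z-scores exceed ±2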

BAG4 (BAG cochaperone 4) | robust z-score, replicate 1: 1.05; robust z-score, replicate 2: 0.933; robust z-score, replicate 3: 0.756
LOC439976 (retired record) | robust z-score, replicate 1: -0.746; robust z-score, replicate 2: -0.275; robust z-score, replicate 3: -0.224
DLGAP3 (DLG associated protein 3) | robust z-score, replicate 1: 0.85; robust z-score, replicate 2: 0.291; robust z-score, replicate 3: 0.27
LOC400923 (retired record) | robust z-score, replicate 1: 2.94 (active); robust z-score, replicate 2: 2.99; robust z-score, replicate 3: 3.13
UBA3 (ubiquitin like modifier activating enzyme 3) | robust z-score, replicate 1: -1.35; robust z-score, replicate 2: -0.794; robust z-score, replicate 3: 0.175
TBC1D24 (TBC1 domain family member 24) | robust z-score, replicate 1: -0.0388; robust z-score, replicate 2: 0.728; robust z-score, replicate 3: 0.414
MPIG6B (megakaryocyte and platelet inhibitory receptor G6b) | robust z-score, replicate 1: -1.72; robust z-score, replicate 2: -1.86; robust z-score, replicate 3: -1.83
HMGB1 (high mobility group box 1) | robust z-score, replicate 1: 6.56 (active); robust z-score, replicate 2: 4.9; robust z-score, replicate 3: 7.53
OR13C9 (olfactory receptor family 13 subfamily C member 9) | robust z-score, replicate 1: -1.07; robust z-score, replicate 2: -1.05; robust z-score, replicate 3: -1.1
BACE1 (beta-secretase 1) | robust z-score, replicate 1: -0.196; robust z-score, replicate 2: 0.946; robust z-score, replicate 3: 0.287
TEX36 (testis expressed 36) | robust z-score, replicate 1: -0.17; robust z-score, replicate 2: -0.123; robust z-score, replicate 3: 0.313
IDUA (alpha-L-iduronidase) | robust z-score, replicate 1: -0.0732; robust z-score, replicate 2: -0.189; robust z-score, replicate 3: 0.039
HLA-B (major histocompatibility complex, class I, B) | robust z-score, replicate 1: -1.09; robust z-score, replicate 2: -0.42; robust z-score, replicate 3: -0.99

Hits, among the entries above:
LOC400923 (retired record) | robust z-score, replicate 1: 2.94 (active); robust z-score, replicate 2: 2.99; robust z-score, replicate 3: 3.13
HMGB1 (high mobility group box 1) | robust z-score, replicate 1: 6.56 (active); robust z-score, replicate 2: 4.9; robust z-score, replicate 3: 7.53

Additional records follow:
KCNAB2 | robust z-score, replicate 1: 1.49; robust z-score, replicate 2: 0.964; robust z-score, replicate 3: 1.78
HLA-A (major histocompatibility complex, class I, A) | robust z-score, replicate 1: 0.387; robust z-score, replicate 2: 0.205; robust z-score, replicate 3: 0.566
LOC440057 (retired record) | robust z-score, replicate 1: -0.954; robust z-score, replicate 2: -0.755; robust z-score, replicate 3: -0.91
BEND3 (BEN domain containing 3) | robust z-score, replicate 1: 3.19 (active); robust z-score, replicate 2: 2.99; robust z-score, replicate 3: 2.5
RAB32 (RAB32, member RAS oncogene family) | robust z-score, replicate 1: -0.396; robust z-score, replicate 2: -0.743; robust z-score, replicate 3: -0.039
LTK (leukocyte receptor tyrosine kinase) | robust z-score, replicate 1: 0.277; robust z-score, replicate 2: 1.24; robust z-score, replicate 3: 0.353
HGFAC (HGF activator) | robust z-score, replicate 1: -0.841; robust z-score, replicate 2: 0.55; robust z-score, replicate 3: -1.29
SNHG29 (small nucleolar RNA host gene 29) | robust z-score, replicate 1: -1.27; robust z-score, replicate 2: -1.33; robust z-score, replicate 3: -1.22
P2RX7 (purinergic receptor P2X 7) | robust z-score, replicate 1: 0.738; robust z-score, replicate 2: 0.469; robust z-score, replicate 3: 0.512
BTBD6 (BTB domain containing 6) | robust z-score, replicate 1: -1.52; robust z-score, replicate 2: -1.52; robust z-score, replicate 3: -0.871
ATG4B (autophagy related 4B cysteine peptidase) | robust z-score, replicate 1: -1.13; robust z-score, replicate 2: -0.893; robust z-score, replicate 3: -1.12
